PubChem BioAssay AID504793 | Drosophila RNAi Screening Center | 2011

Test: 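Genes required for cells to halt at G2/M after double-strand DNA breaks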 (primary screen)
System: Drosophila S2R+ cells
Knock-down reagent: long dsRNA against Drosophila genes, about 0.25 µg dsRNA per well
Time to read-out: 4 days of dsRNA, then 4 hours of drug before read-out
Conditions: doxorubicin 0.5 µM for 4 hours to cause double-strand breaks, in cells also given a low, harmless dose of dsRNA against nbs to sensitise the assay
Measured: 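Per-well count of mitotic cells stained for phospho-histone H3 after doxorubicin exposure, used as mitotic index; counts are raw and not normalised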
Reading the numbers: mitotic cells: higher = more cells in mitosis, weaker G2 arrest
Call rule: 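Genes are called active only when high mitotic counts were reproduced with independent dsRNAs and mitosis was checked for delay without damage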
Meaning of the calls: active = confirmed in follow-up tests; inactive = not confirmed
The deposit covers about 23,000 reagents; this is an unselected part of those that have a named target and a result. In the full data, 62 (0.27%) got an active call. 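Calls come from follow-up tests whose scores are not deposited, so confirmed genes may have low counts here; counts are not normalised per plate.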 Raw values vary from plate to plate and are shown uncorrected. A number with no mark means an inactive call. Reagents against one gene are numbered here. A plus sign joins genes that one reagent is predicted to hit.

The first 4 records, ahead of the listing:
Target gene | dsRNA no. | mitotic cells, replicate 1
CG5767 | 1 | 2
CG5767 | 2 | 12
Dyrk3 | 1 | 9
CG14659 | 1 | 1

The listing, repeating the preview:
Target gene | dsRNA no. | mitotic cells, replicate 1
CG5767 | 1 | 2
CG5767 | 2 | 12
Dyrk3 | 1 | 9
CG14659 | 1 | 1
zfh2 | 1 | 7
zfh2 | 2 | 3
CheB38b | 1 | 9
CG8563 | 1 | 4
CG31407 | 1 | 6
TwdlL | 1 | 4
CG33331 + CG33332 | 1 | 14
CG33331 + CG33332 | 2 | 4
CG17600 | 1 | 5
CG17600 | 2 | 6
CG17600 | 3 | 4
Tps1 | 1 | 5
Tps1 | 2 | 5
pico | 1 | 9
CG9427 | 1 | 10
CG9427 | 2 | 5
CG6204 | 1 | 6
CG14642 | 1 | 5
salto | 1 | 3
salto | 2 | 13
GstE12 | 1 | 13
GstE12 | 2 | 9
Vps13B | 1 | 7
asRNA:CR42547 + CG15674 | 1 | 5
CG30172 | 1 | 10
CG30172 | 2 | 1
coro | 1 | 3
coro | 2 | 16
Hsp60A | 1 | 6
Usf | 1 | 18
Usf | 2 | 1
CG14654 (retired record) | 1 | 10
CG14654 (retired record) | 2 | 7
CG3603 | 1 | 7
CG8545 | 1 | 8
Vta1 | 1 | 15
Vta1 | 2 | 7
IFT43 | 1 | 5
GABA-B-R1 | 1 | 15
arg | 1 | 13
arg | 2 | 6
